Amino acid sequences for entries named in this document (tags omitted). A change or cut given only in a name is not applied to a line headed by its entry.
UniProt F7VVC1: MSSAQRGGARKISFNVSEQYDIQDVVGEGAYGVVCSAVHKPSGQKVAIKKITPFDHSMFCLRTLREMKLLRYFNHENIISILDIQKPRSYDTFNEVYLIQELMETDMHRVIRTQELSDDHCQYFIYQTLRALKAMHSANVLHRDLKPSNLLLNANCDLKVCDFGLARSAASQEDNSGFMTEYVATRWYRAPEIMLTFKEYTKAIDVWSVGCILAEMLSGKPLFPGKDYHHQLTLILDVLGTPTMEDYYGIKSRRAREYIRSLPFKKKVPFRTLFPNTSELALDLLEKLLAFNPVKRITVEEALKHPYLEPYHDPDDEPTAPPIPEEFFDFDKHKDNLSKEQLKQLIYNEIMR

In article PMC7401384:

Key:
[1] = target: MEK2 (Sordaria macrospora) (UniProt F7W4K9); test: two-hybrid; GAL4 AD (pGADT7) and GAL4 BD (pGBKT7) fusions in yeast PJ69-4alpha and PJ69-4a, mated to diploids; drop plating, growth on SD medium lacking leucine, tryptophan, adenine and histidine
[2] = target: MAK2 (Sordaria macrospora) (UniProt F7VVC1); test: as above

binding [1] | binding [2] | Substance
binds |  | MIK2 (from UniProt F7W3M8) (enzyme)
binds | binds | HAM5 (from UniProt F7VPN9)

No constants are given. Whether binding was seen depends on the method and setting. Binding calls can cover weak binding; strength is not graded here.
